# Data from article PMC4634852.
# Results are given in words; binding and its absence hold for the method and conditions named. In cells and extracts the contact can be indirect. A result given as binding can be weak or reduced; the word gives no strength. Sequences can lack the tags named with a protein.
# Molecular target: Ik2 kinase, FLAG-tagged (Drosophila)
# Assay: co-IP; lysates of S2 cells co-transfected with a FLAG-tagged bait (Ik2-FLAG or Ctp-FLAG) and a myc-tagged Spn-F form; anti-FLAG M2 agarose beads on ice; lysis buffer 20 mM Tris pH 7.0, 150 mM NaCl, 2 mM EDTA, 1% TritonX-100, 1 mM DTT; immunoblot
row,binding,Binder
1,binds,"Spindle-F (Spn-F), full-length, myc-tagged (protein, UniProt Q9V9Y9 1-364) MEASAAKITPMASSMSASGSTNSPSSEKMNYALQVALQTIKERCIQLQRRVASMEEENQQLREASSRSEGAPRANEIGVTGDVLSLKAQVSELQRQKEQLEEHIGMVSNENRRLWSRLSQISKDQQLNALPSSTDSRAQQNQNLVRSKTFTQHSPNPHLRQKMLSDGIKDLSLEEIALDDFGASSEELGYPYNLQKVEETTSEPDANVDAKRCLDGLQELRREAMKQQQELRSVMTLLENRIALKPCPECAQKTIKKPEMADKSLETDDSLTSELKNYESQHNGHNGTPPSQRINIIQEKIKADAADAMEKTCPMCGKQYSSQVSFNAFREHVEMHFIDDALELESENSIERQFEFVSHAVGDF"
2,binds,"Spn-F-8D, phospho-mimetic mutant, myc-tagged (protein, UniProt Q9V9Y9 1-364) MEASAAKITPMASSMSASGSTNSPSSEKMNYALQVALQTIKERCIQLQRRVADMEEENQQLREASSRSEGAPRANEIGVTGDVLDLKAQVSELQRQKEQLEEHIGMVSNENRRLWSRLSQISKDQQLNALPSSTDSRAQQNQNLVRSKTFTQHSPNPHLRQKMLSDGIKDLDLEEIALDDFGASSEELGYPYNLQKVEETTDEPDANVDAKRCLDGLQELRREAMKQQQELRSVMTLLENRIALKPCPECAQKTIKKPEMADKDLETDDDLTSELKNYESQHNGHNGTPPSQRINIIQEKIKADAADAMEKTCPMCGKQYSSQVDFNAFREHVEMHFIDDALELESENDIERQFEFVSHAVGDF"
3,binds,"Spn-F-8A, phospho-deficient mutant, myc-tagged (protein, UniProt Q9V9Y9 1-364) MEASAAKITPMASSMSASGSTNSPSSEKMNYALQVALQTIKERCIQLQRRVAAMEEENQQLREASSRSEGAPRANEIGVTGDVLALKAQVSELQRQKEQLEEHIGMVSNENRRLWSRLSQISKDQQLNALPSSTDSRAQQNQNLVRSKTFTQHSPNPHLRQKMLSDGIKDLALEEIALDDFGASSEELGYPYNLQKVEETTAEPDANVDAKRCLDGLQELRREAMKQQQELRSVMTLLENRIALKPCPECAQKTIKKPEMADKALETDDALTSELKNYESQHNGHNGTPPSQRINIIQEKIKADAADAMEKTCPMCGKQYSSQVAFNAFREHVEMHFIDDALELESENAIERQFEFVSHAVGDF"
